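Change in HTT-promoter-driven luminescence in engineered HEK293 reporter cells after a 24 h treatment, measured at one concentration. Percent change in reporter signal versus vehicle (0%) down to no light (-100%); more negative values mean stronger inhibition of promoter activity.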

Values are in %. Common to all entries: at 57.5 µM (top of the series). Only part of the assay is listed here, not a random draw.

Compound	activity change (%)
COc1ccc(CNC(=O)Cc2c(C)c3c(O)cc(C)cc3oc2=O)cc1	-6.574
COc1ccc(-c2nc(SCC(=O)NCc3nc4ccccc4n3C)n3[nH]c(=O)cc3n2)cc1	-6.452
Cc1ccc(NC(=O)c2c(C)oc3ccc(O)c(CN4CCOCC4)c23)c(C)c1	-13.42
COc1ccc(N2CCN(S(=O)(=O)c3c(C)nc4scc(C)n4c3=O)CC2)cc1	-44.6
Cc1cccc(N2CCN(S(=O)(=O)c3ccc4oc(=O)c5ncn(C)c5c4c3)CC2C)c1 (stereo unspecified)	-1.352
CCc1cc(=O)oc2c(C)c(OCC(=O)Nc3ccc(S(=O)(=O)N(CC)CC)cc3)ccc12	-25.29
COc1ccc(CNC(=O)CCc2c(C)c3cc4c(C)coc4cc3oc2=O)cc1	-16.8
CCOc1ccc(NC(=O)CC2C(=O)N(c3ccccc3)C(=O)N2Cc2cccc(OC)c2)cc1 (stereo unspecified)	9.389
Cc1cc(F)ccc1NC(=O)CCS(=O)(=O)c1ccc2c(c1)CC(C)N2C(=O)C1CC1 (stereo unspecified)	-35.66
COc1ccc(-c2cc(=O)oc3c4c(ccc23)OCN(Cc2cccc(OC)c2)C4)cc1	-46.63
Cc1cc(C)cc(NS(=O)(=O)c2ccc(-c3cc(C)no3)cc2)c1	-72.07
COc1cc(C)cc2oc(=O)c(CC(=O)NCCc3ccc(Cl)cc3)c(C)c12	-3.212
COC(=O)c1ccc(NC(=O)CC2C(=O)N(c3ccccc3)C(=O)N2Cc2ccc(F)cc2)cc1 (stereo unspecified)	-30.79
CCOC(=O)c1cccc(NC(=O)CC2C(=O)N(c3ccc(OC)cc3)C(=O)N2C2CCCC2)c1 (stereo unspecified)	-28.73
O=C(NCc1ccccc1Cl)c1cnc2sc(N3CCOCC3)nn2c1=O	-9.01
Cc1nn(-c2ccc(N3CCCC3)nn2)c(C)c1CCC(=O)NCc1ccc(OC(C)C)cc1	-33.36
CCc1ccc(NC(=O)c2c(C(=O)Nc3ccccc3)sc3nc(C)cc(=O)n23)cc1	-27.6
CCc1c(C)sc(NC(=O)c2cc(-c3ccc(OC)c(OC)c3)on2)c1C#N	-7.486
Clc1ccccc1N1CCN(Cc2nnc(-c3ccccc3)o2)CC1	-31.34
O=S(=O)(Nc1ccc(-c2ccc(N3CCCC3)nn2)cc1)c1ccccc1Cl	-5.657
Cc1nn(Cc2ccccc2Cl)c(C)c1NC(=O)c1cc(C(C)C)on1	-41.1
Cc1c(CCC(=O)NCCc2ccccc2)c(=O)oc2c(C)c(O)ccc12	0.9549
O=S(=O)(Nc1cccc(-c2ccc(N3CCCC3)nn2)c1)c1cc(F)ccc1F	-10.9
COc1ccc(F)cc1S(=O)(=O)Nc1cccc(-c2ccc(N3CCCCCC3)nn2)c1	-2.288
COc1cccc(C(=O)NCC2OCCc3ccccc32)c1 (stereo unspecified)	15.04
CC(=O)c1cc(-c2ccc(F)cc2)n(CCC(=O)NCc2ccccc2C)c1C	-19.82
COC(=O)CN1C(=O)CSc2ccc(S(=O)(=O)Nc3ccc(C)c(Cl)c3)cc21	-32.68
CC1Cc2cc(S(=O)(=O)CCC(=O)Nc3ccc(F)cc3)ccc2N1C(=O)C1CC1 (stereo unspecified)	-29.41
COc1ccc2c(C)c(CC(=O)NCc3ccccc3Cl)c(=O)oc2c1OC	-15.87
Cc1ccc(S(=O)(=O)Nc2ccc(-c3ccc(N4CCCCCC4)nn3)cc2)c(C)c1	-18.19
Cc1oc2ccc(O)c(CN3CCCC3)c2c1C(=O)Nc1ccccc1	-9.465
COc1ccccc1CNC(=O)c1cnc2sc(N3CCCCC3)nn2c1=O	-8.041
CCc1ccc(NC(=O)CC2C(=O)N(c3cccc(OC)c3)C(=O)N2Cc2ccco2)cc1 (stereo unspecified)	-13.79
C=C(C)CSc1nc2sc3c(c2c(=O)n1-c1ccccc1)CC(C(C)C)OC3 (stereo unspecified)	-15.84
CCOc1ccccc1CNC(=O)CCc1c(C)nn(-c2ccc(N3CCCCC3)nn2)c1C	-28.44
Cc1ccc(OCCCn2c(-c3ccc(Cl)cc3)nc3ccccc3c2=O)c(C)c1	-14.9
Cc1oc2ccc(O)c(CN3CCC(C)CC3)c2c1C(=O)Nc1ccccc1	-23.24
Cc1cccc(OCCn2c(-c3ccc(Cl)cc3)nc3ccccc3c2=O)c1	-9.887
CCc1nn(CC(=O)NC(C)CCc2ccccc2)c(=O)c2cc3c(OC)cccc3n12 (stereo unspecified)	3.336
Cc1ccc(NC(=O)CCn2nc(-c3ccccc3)c3ccccc3c2=O)c(C)c1	-16.55
COc1cc(OC)c(Nc2nc3ccc(C)cc3n3nnnc23)cc1Cl	-2.537
O=C(CC1C(=O)N(c2ccccc2)C(=O)N1Cc1ccc(F)cc1)Nc1cccc(F)c1 (stereo unspecified)	-29.65
CC(=O)Nc1ccc(NC(=O)Nc2sc3nc4n(c(=O)c3c2C)CCC(C)CC4)cc1 (stereo unspecified)	-17.98
CCOc1ccccc1NS(=O)(=O)c1ccc2oc(=O)c3ncn(C)c3c2c1	-4.779
COc1ccc(CNC(=O)C2CCCCN2S(=O)(=O)c2ccc(F)cc2)cc1 (stereo unspecified)	-41.29
Cc1nn(-c2ccc(N3CCCCC3)nn2)c(C)c1CCC(=O)Nc1ccc(F)cc1F	-17.47
COc1cc(NC(=O)CC2C(=O)N(c3ccc(Cl)cc3)C(=O)N2Cc2cccs2)cc(OC)c1 (stereo unspecified)	-39.48
Cc1ccc(CSCCNC(=O)C2CCN(S(=O)(=O)Cc3ccccc3)CC2)cc1	-26.6
Cc1ccc(S(=O)(=O)Nc2cc3c(cc2NCc2ccccc2)n(C)c(=O)n3C)cc1	47.58
COc1c(C)cc(S(=O)(=O)Nc2cccc(-c3ccc(N4CCOCC4)nn3)c2)c(C)c1C	-1.913
CCCOc1ccc(C2C(=O)N(C3CCCCCC3)CC(=O)N2CCCOCC)cc1OC (stereo unspecified)	-15.45
COC(=O)c1ccc(NC(=O)CN(Cc2ccccc2)S(=O)(=O)c2ccc(Cl)cc2)cc1	-61.17
CCc1cc(=O)oc2cc(C)c3c(-c4ccc(F)cc4)coc3c12	-10.14
O=S(=O)(Nc1cccc(-c2ccc(N3CCCCCC3)nn2)c1)c1cccc(F)c1	28.64
Cc1cc(=O)n2c(C(=O)Nc3ccc(Br)cc3)c(C(=O)Nc3ccccc3)sc2n1	-13.72

4 of the entries, repeated:

Compound,activity change (%)
CCCOc1ccc(C2C(=O)N(C3CCCCCC3)CC(=O)N2CCCOCC)cc1OC (stereo unspecified),-15.45
COc1ccc(CNC(=O)C2CCCCN2S(=O)(=O)c2ccc(F)cc2)cc1 (stereo unspecified),-41.29
Cc1c(CCC(=O)NCCc2ccccc2)c(=O)oc2c(C)c(O)ccc12,0.9549
CCc1ccc(NC(=O)c2c(C(=O)Nc3ccccc3)sc3nc(C)cc(=O)n23)cc1,-27.6

Source: PubChem BioAssay AID1508623 (NCATS, 2021).